These are yes or no findings as the source states them, for the method shown. In cells and extracts the contact can be indirect. Some binding calls cover weakened binding; strength is not graded here.
What was measured:
[1] = target: A-kinase anchoring protein 12 (AKAP12), mouse (mouse (endogenous in mouse hepatocytes and liver)) (UniProt Q9WTQ5); test: co-IP; total liver protein of pair-fed or ethanol-fed mice in IP lysis buffer, precipitated with AKAP12 antibody, blotted for PKAR2
[2] = target: A-kinase anchoring protein 12 (AKAP12), human (human (endogenous in primary human hepatocytes and human liver tissue)) (UniProt Q02952); test: proximity ligation; paraffin-embedded human liver steatosis tissue array (6 normal, 19 steatosis with alcohol, 5 without); antibodies conjugated to PLA plus or minus probes; AKAP12-PKAR2A red, AKAP12-PKAR1A green
[3] = target: A-kinase anchoring protein 12 (AKAP12), human (human (endogenous in primary human hepatocytes and human liver tissue)) (UniProt Q02952); test: proximity ligation; cultured primary human hepatocytes, control or ethanol; PLA-probe linked secondary rabbit or mouse IgG; also with STK25 siRNA or AKAP12 vector
[4] = target: A-kinase anchoring protein 12 (AKAP12), human (human (endogenous in primary human hepatocytes and human liver tissue)) (UniProt Q02952); test: co-IP; total protein (300-500 ug) of primary human hepatocytes in IP lysis buffer, pre-cleared, precipitated with 2 ug AKAP12 antibody, blotted for PKAR2A or PKAR1A; cells control or 100 mM ethanol 24 h; WT (Cas9 alone) or PKA-BD CRISPR cells
[5] = target: PKA regulatory subunit RI-alpha (PKAR1A), human (human (endogenous in primary human hepatocytes and human liver tissue)) (UniProt P10644); test: proximity ligation; cultured primary human hepatocytes, control or ethanol; PLA-probe linked secondary rabbit or mouse IgG; also with STK25 siRNA or AKAP12 vector

Chains of the proteins cited; added tags and fusions are not shown.
UniProt Q9WTQ5: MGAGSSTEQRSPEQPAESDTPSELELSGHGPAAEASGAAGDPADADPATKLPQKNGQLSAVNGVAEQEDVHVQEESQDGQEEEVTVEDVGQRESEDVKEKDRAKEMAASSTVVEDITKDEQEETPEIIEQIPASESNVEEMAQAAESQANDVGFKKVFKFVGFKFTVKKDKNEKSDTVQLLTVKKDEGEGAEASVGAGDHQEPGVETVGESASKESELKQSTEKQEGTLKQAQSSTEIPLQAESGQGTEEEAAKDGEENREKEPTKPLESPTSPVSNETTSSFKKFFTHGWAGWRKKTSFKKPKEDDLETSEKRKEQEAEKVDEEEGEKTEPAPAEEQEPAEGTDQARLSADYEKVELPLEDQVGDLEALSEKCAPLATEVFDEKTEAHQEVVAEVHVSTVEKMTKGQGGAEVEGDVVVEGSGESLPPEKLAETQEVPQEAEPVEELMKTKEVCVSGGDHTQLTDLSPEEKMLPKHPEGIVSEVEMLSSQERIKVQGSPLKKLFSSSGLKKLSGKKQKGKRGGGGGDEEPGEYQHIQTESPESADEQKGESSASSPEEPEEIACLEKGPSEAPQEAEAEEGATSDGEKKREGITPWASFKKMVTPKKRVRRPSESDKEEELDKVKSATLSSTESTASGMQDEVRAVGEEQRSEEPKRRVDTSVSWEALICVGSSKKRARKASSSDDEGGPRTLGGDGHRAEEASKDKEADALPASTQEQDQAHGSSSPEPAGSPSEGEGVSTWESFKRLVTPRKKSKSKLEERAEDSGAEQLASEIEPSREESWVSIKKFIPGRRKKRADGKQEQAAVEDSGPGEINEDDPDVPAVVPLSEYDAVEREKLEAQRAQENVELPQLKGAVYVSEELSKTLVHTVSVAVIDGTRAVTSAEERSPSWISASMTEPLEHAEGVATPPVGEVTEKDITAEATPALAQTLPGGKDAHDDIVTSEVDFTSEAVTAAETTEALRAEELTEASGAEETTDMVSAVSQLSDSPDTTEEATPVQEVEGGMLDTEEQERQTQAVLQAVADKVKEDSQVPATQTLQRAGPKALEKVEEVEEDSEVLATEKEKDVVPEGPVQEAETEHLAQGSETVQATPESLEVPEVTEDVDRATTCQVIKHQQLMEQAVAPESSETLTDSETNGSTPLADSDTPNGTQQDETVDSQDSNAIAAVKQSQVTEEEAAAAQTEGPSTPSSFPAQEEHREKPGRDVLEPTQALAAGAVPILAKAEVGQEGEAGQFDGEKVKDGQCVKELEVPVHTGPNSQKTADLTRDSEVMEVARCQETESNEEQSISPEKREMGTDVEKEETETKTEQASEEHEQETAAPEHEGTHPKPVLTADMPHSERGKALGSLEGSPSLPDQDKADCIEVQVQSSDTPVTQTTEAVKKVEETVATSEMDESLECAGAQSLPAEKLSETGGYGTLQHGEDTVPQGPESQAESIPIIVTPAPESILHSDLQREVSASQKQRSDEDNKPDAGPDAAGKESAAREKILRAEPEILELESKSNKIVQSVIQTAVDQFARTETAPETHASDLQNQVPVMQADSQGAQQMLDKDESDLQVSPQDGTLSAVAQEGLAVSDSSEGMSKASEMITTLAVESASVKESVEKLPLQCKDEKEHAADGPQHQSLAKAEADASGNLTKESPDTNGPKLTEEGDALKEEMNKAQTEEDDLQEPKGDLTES
UniProt Q02952: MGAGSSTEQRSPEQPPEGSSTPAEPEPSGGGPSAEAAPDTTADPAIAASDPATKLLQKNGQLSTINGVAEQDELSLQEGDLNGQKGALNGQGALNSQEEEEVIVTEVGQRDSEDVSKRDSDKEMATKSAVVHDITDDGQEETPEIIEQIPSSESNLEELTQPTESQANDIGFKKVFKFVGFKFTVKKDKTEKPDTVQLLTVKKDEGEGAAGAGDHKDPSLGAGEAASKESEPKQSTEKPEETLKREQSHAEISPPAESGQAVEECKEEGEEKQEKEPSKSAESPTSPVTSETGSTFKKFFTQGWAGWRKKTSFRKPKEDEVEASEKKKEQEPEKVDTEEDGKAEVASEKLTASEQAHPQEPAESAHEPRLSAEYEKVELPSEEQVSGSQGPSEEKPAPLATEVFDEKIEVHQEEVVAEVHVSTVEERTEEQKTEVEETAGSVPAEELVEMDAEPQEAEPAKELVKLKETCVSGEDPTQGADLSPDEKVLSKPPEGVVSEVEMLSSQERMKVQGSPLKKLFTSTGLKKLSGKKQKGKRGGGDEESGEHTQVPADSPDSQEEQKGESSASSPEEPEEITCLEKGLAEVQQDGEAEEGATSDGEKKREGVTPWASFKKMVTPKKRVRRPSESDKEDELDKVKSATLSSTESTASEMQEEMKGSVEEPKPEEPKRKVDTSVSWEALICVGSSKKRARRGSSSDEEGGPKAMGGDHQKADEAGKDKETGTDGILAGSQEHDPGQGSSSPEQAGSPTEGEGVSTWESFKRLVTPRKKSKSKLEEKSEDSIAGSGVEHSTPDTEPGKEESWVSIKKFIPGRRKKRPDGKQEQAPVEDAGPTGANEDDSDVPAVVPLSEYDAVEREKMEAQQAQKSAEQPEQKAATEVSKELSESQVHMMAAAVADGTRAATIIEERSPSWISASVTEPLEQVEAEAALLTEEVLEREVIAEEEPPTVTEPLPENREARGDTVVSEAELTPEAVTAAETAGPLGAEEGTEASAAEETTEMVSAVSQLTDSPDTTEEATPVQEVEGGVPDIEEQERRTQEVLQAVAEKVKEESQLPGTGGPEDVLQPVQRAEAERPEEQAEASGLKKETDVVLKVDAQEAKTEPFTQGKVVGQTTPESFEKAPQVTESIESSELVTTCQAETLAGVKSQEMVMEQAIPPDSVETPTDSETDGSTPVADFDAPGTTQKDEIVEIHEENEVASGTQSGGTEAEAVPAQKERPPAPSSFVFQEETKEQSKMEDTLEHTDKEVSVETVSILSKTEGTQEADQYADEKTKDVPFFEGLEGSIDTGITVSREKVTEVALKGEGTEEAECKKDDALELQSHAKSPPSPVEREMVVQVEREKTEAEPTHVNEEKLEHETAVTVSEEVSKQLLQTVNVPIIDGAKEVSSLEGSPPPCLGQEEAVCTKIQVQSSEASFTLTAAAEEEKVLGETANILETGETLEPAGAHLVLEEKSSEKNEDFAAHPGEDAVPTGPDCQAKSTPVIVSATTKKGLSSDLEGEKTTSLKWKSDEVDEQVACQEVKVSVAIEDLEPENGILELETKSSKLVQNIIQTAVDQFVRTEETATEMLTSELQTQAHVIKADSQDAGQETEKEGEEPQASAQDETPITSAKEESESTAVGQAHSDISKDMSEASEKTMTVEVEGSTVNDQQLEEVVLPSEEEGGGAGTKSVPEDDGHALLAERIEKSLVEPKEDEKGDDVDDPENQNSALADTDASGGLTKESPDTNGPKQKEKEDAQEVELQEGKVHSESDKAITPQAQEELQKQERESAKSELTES
UniProt P10644: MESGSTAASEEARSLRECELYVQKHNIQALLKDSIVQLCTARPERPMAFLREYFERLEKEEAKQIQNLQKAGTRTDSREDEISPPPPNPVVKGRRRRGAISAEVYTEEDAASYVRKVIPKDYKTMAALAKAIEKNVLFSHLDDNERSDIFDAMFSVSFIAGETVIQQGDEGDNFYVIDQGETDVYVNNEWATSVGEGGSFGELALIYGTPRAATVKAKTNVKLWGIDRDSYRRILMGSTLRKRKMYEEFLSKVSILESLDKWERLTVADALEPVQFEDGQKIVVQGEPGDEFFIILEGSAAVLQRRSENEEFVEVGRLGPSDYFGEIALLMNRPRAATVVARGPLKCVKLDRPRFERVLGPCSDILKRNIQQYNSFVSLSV
UniProt P12367: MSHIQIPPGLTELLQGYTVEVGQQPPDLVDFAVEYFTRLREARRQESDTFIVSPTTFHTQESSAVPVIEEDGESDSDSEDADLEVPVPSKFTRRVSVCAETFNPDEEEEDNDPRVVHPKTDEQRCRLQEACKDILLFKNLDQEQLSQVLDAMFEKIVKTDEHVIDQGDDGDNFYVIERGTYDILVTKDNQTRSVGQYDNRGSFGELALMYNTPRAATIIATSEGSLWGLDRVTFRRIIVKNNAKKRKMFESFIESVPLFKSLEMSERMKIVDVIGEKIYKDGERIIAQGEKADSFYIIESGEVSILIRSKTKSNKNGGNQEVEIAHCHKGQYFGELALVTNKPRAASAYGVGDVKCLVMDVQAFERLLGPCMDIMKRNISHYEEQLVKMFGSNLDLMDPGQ
UniProt P13861: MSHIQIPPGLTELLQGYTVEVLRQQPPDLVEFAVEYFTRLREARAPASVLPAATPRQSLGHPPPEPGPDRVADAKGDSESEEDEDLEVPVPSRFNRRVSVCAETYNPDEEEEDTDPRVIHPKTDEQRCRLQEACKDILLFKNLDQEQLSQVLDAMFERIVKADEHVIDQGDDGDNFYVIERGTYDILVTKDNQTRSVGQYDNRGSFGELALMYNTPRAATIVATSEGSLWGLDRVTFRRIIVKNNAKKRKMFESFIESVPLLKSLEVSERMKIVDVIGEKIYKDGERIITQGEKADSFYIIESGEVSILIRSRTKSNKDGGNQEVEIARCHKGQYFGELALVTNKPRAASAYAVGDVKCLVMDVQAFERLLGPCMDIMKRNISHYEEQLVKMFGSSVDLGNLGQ
UniProt O00506: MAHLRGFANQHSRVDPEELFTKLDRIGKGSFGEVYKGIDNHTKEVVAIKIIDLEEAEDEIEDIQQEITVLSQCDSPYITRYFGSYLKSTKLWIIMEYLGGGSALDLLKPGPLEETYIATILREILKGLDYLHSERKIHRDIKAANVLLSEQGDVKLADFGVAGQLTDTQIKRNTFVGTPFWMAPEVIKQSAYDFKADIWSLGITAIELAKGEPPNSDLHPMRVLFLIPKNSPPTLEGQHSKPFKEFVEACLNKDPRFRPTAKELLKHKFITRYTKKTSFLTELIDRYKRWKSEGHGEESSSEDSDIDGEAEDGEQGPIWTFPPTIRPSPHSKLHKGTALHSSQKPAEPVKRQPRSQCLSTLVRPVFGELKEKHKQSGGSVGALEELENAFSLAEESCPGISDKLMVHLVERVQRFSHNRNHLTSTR

Substance | binding [1] | binding [2] | binding [3] | binding [4] | binding [5]
Protein kinase type II-alpha (PKA regulatory subunit RII-alpha), mouse (from UniProt P12367 1-401) | binds |  |  |  | 
PKA regulatory subunit RI-alpha (PKAR1A), human (from UniProt P10644 1-381) |  | binds | binds | binds | 
PKA regulatory subunit RII-alpha (PKAR2A), human (from UniProt P13861 1-404) |  | binds |  | binds | 
serine/threonine-protein kinase 25 (STK25), human (from UniProt O00506 1-426) (enzyme) |  |  |  |  | binds

— publication PMC11979000
